From PubChem BioAssay AID504444 (National Center for Advancing Translational Sciences (NCATS), 2011)
Screen size: about 360,000 compounds; about 7,500 (2.1%) were called active. The shares of active, inactive and inconclusive entries below differ from those in the screen. The call rests on the fitted dose curve; in most records, active means well fitted inhibition curve with a large enough effect; inconclusive means small, poorly fitted or top-dose-only effect, or effect the other way; inactive means flat fitted curve, though single readings scatter. Where the call is inconclusive, the potency comes from a doubtful curve fit.

Experiment: Nrf2 qHTS screen for inhibitors; further: nearly all actives have a fitted effect of over 60% in size
Conditions: A549 ARE-Fluc reporter, luciferase luminescence, 18-24 h; series mostly up to 46 µM
How it was run: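 Quantitative HTS in A549 cells stably bearing an antioxidant response element-firefly luciferase construct. Inhibition of Nrf2-driven transcription was scored by luminescence after 18-24 h of compound exposure at 37 °C.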
Potency means the concentration at half of the fitted maximal effect.

SMILES | Potency
CC(C)CNc1ncnc2c1cnn2Cc1ccc(Cl)cc1 | inconclusive: 14.6 µM [falling, partial curve]
O=C(N[C@@H]1CCC(=O)N(CC[C@H](Sc2ccccc2)c2ccccc2)CC1)OCc1ccccc1 | inactive
COc1ccc(CCn2c(=N)c(C(=O)NCC3CCCO3)cc3c(=O)n4ccccc4nc32)cc1OC (configuration not stated) | inconclusive: 16.4 µM [falling, partial curve]
Nc1nc(Nc2ccccc2Br)nc(C(F)(F)F)n1 | inconclusive: 7.31 µM [activator, partial curve, poor fit]
Cc1cc(-c2ccccc2)n2nc(C)c(-c3ccccc3)c2n1 | inconclusive: 23.1 µM [activator, single point]
Cc1ccccc1C(=O)Nc1cccc(NC(=O)c2ccc(-c3ccc(Br)cc3)o2)c1 | inactive
CCOc1ccc(-c2nn(CC(=O)NC3CCCC3)c3c2cnc2ccc(F)cc23)cc1 | inconclusive: 29.1 µM [activator, single point]
COc1ccc(CCNC(=O)c2cc(-c3ccc(Cl)c(Cl)c3)oc2C)cc1 | inconclusive: 20.6 µM [falling, single point]
CCC(=O)NC(c1ccco1)c1cc([N+](=O)[O-])c2cccnc2c1O (configuration not stated) | inconclusive: 29.1 µM [falling, single point]
C=CCNc1nc(-c2ccccc2)c(C(=O)OCC)cc1C#N | inconclusive: 4.61 µM [falling, partial curve, poor fit]
CCSc1nnc(NC(=O)NC(C)(C(F)(F)F)C(F)(F)F)s1 | inconclusive: 29.1 µM [falling, single point]
CCC(=O)Nc1cccc(-c2nnc(-c3ccccc3)o2)c1 | inactive
O=C(CSc1nnc(Nc2ccccc2F)s1)NC(=O)CN1CCCC1=O | inconclusive: 16.4 µM [activator, partial curve, poor fit]
CCCOc1ccc2ccccc2c1/C=N/n1c(C)nnc1-n1nc(C)cc1C | inconclusive: 6.51 µM [falling, partial curve, poor fit]
COc1cc2[nH]c(C(=O)Nc3ccc4c(c3)OCCO4)cc2c(OC)c1OC | inconclusive: 29.1 µM [falling, single point]
O=C(Nc1cccc(Cl)c1)c1cc2c(=O)[nH]c3ccccc3c2s1 | inconclusive: 3.26 µM [activator, partial curve]
CN(CCc1ccccc1)C(=O)c1cccc(NC(=O)Cc2cccc(NC(=O)C3CCN(C(=O)C4CCCC4)CC3)c2)c1 | inconclusive: 23.1 µM [falling, partial curve]
COc1cc2c(c(OC)c1)C(c1cccc(OC)c1OC)CC(=O)N2 (configuration not stated) | inconclusive: 1.3 µM [falling, full curve]
Cc1cccc(Nc2nc(N)c([N+](=O)[O-])c(NCCO)n2)c1 | inconclusive: 29.1 µM [falling, single point]
Cc1cccc(-c2nc3c4ccccc4nc(N4CCN(c5cc(C)ccc5C)CC4)n3n2)c1 | inconclusive: 4.11 µM [activator, full curve, poor fit]
CC(C)(C)SCCNC(=O)c1ccc(Cl)c([N+](=O)[O-])c1 | inconclusive: 20.6 µM [activator, partial curve]

SMILES | Potency
CC1(c2cc(F)ccc2F)NC(=O)N(CC(=O)Nc2cccc(S(=O)(=O)N3CCCC3)c2)C1=O (configuration not stated) | inconclusive: 3.66 µM [falling, partial curve, poor fit]
O=C(CCN1C(=O)/C(=C/c2cccs2)SC1=S)Nc1ccc(C(=O)O)cc1 | inactive
C/C(NC1CCCCC1)=C(/C#N)C(=O)NCCN1CCOCC1 | inconclusive: 8.2 µM [falling, partial curve]
CC(C)(C)NS(=O)(=O)c1cc(C(=O)Nc2sccc2C#N)ccc1Cl | inconclusive: 20.6 µM [falling, single point]
COc1ccc2[nH]cc(C(=O)NCCc3ccccc3)c(=O)c2c1 | inconclusive: 3.66 µM [activator, partial curve, poor fit]
Cc1ccc(Cn2c(=N)n(CC(=O)c3ccc([N+](=O)[O-])cc3)c3ccccc32)cc1 | inactive
CC(C)(C)CC(=O)Nc1ccc(C(N)=O)cc1 | inconclusive: 0.164 µM [falling, full curve, poor fit]
COc1ccc(CNc2oc(-c3ccc(COc4ccccc4C)o3)nc2C#N)cc1 | active: 20.6 µM
CCn1cc(C(=O)N2CCN(c3ccccc3F)CC2)c(=O)c2cc(S(=O)(=O)N(C)C)ccc21 | inactive
CC(C)(C)CC(=O)Nc1cc2c3c(c1)CCC(=O)N3CCC2 | inconclusive: 16.4 µM [falling, partial curve, poor fit]
COC(=O)c1ccc(-c2nc(CN3CCC(C(=O)N4CCOCC4)CC3)c(C)o2)cc1 | inactive
Cn1c(=O)n(/N=C/c2ccccc2)c2ccccc21 | inactive
O=C(Cn1nnc2ccccc21)NCc1ccccc1 | inconclusive: 5.8 µM [activator, full curve]
Cc1nc2c(-c3ccccc3)c[nH]n2c(=O)c1Cc1ccccc1 | inconclusive: 25.9 µM [activator, partial curve]
CC(C)C(Nc1ccc(C(F)(F)F)cc1[N+](=O)[O-])C(=O)O (configuration not stated) | inconclusive: 2.06 µM [falling, single point]
Cc1cc(C(c2ccc(O)cc2)c2cc(C)c(O)cc2C)c(C)cc1O | inconclusive: 29.1 µM [falling, single point]
COc1ccccc1Oc1ncnc2sccc12 | inactive
COc1ccc(C(=O)Oc2cc(/C=N/NS(=O)(=O)c3ccc(C)cc3)ccc2OC)cc1 | active: 16.4 µM
CCOC(=O)c1cc(-c2ccccc2)sc1NC(=O)C(C)N1C(=O)c2ccccc2C1=O (configuration not stated) | inconclusive: 25.9 µM [falling, single point]
c1ccc(SCc2nc3ccccc3s2)nc1 | inconclusive: 4.11 µM [activator, full curve]
COc1cc(C(C[N+](=O)[O-])c2c(C)cc3ccccn23)ccc1O (configuration not stated) | inconclusive: 23.1 µM [falling, single point]

Compounds listed so far with a CF3 group:
SMILES | Potency
Nc1nc(Nc2ccccc2Br)nc(C(F)(F)F)n1 | inconclusive: 7.31 µM [activator, partial curve, poor fit]
CCSc1nnc(NC(=O)NC(C)(C(F)(F)F)C(F)(F)F)s1 | inconclusive: 29.1 µM [falling, single point]
CC(C)C(Nc1ccc(C(F)(F)F)cc1[N+](=O)[O-])C(=O)O (configuration not stated) | inconclusive: 2.06 µM [falling, single point]
